This passage reports isolated yield results from PMC5746060 (Cell Chemical Biology, 2017).

A short description of the data set: general procedure: hybrid (solid and solution phase) peptide synthesis; 2-chlorotrityl resin. The note with it: whole synthesis.

Regarding Ac-RVRHA-CONH-benzyl, the isolated yield amounted to 4.2%.
